System: retinal neovascularization
Assay: Oxygen-induced ischemic retinopathy in mice, lectin-stained retinal sections with image analysis
Format: in vivo, C57/BL6J mice
Details: 600 mg/kg once a day for 5 days
Protocol: Ischemic retinopathy is produced in C57/BL6J mice by a method described by Smith et al., Oxygen-induced Retinopathy in the Mouse, Invest. Ophthalmol. Vis. Sci. 35, 101-111 (1994). Seven-day-old mice and their mothers are placed in an airtight incubator and exposed to an atmosphere of 75 ± 3% oxygen for 5 days. Incubator temperature is maintained at 23 ± 2°C, and oxygen is measured every 8 hours with an oxygen analyzer. After 5 days, the mice are removed from the incubator, placed in room air, and subjected to a drug treatment. N-benzoyl-staurosporine (NBS) is dissolved in dimethyl sulfoxide (DMSO) and diluted to final concentrations with water; the maximum concentration of DMSO is 1%. Vehicle (1% DMSO) or vehicle containing various concentrations of the drug (volume = 10 µl per gram body weight) is placed in the stomach by gavage. Different mice are given 60, 300 or 600 mg of NBS per kg of body weight. As a control, a group of mice are given the vehicle without NBS. […]
To perform quantitative assessments, 10 µm serial sections are cut through half of each eye and sections roughly 50-60 µm apart are stained with lectin, providing 13 sections per eye for analysis. […] Image-Pro Plus software (Media Cybernetics, Silver Spring, MD) is used to delineate lectin-stained cells on the surface of the retina and their area is measured. […]

**Q.** `CO[C@@H]1[C@H](N(C)C(=O)c2ccccc2)C[C@H]2O[C@]1(C)n1c3ccccc3c3c4c(c5c6ccccc6n2c5c31)C(=O)NC4` [NBS, N-benzoyl-staurosporine] was tested. Which “inhibition of neovascularization (endothelial cells on the surface of the retina, high magnification)” value did it give?
**A.** complete inhibition

Source: patent publication EP1131073B1, “USE OF STAUROSPORINE DERIVATIVES FOR TREATING OCULAR NEOVASCULAR DISEASES” (Novartis AG, priority 1998, dated 2000)
